# Measured values published in PubChem BioAssay AID2718 (Broad Institute, 2010).
# Amino acid sequences for entries named in this document (tags omitted).
# UniProt O15379, whole entry, looked up: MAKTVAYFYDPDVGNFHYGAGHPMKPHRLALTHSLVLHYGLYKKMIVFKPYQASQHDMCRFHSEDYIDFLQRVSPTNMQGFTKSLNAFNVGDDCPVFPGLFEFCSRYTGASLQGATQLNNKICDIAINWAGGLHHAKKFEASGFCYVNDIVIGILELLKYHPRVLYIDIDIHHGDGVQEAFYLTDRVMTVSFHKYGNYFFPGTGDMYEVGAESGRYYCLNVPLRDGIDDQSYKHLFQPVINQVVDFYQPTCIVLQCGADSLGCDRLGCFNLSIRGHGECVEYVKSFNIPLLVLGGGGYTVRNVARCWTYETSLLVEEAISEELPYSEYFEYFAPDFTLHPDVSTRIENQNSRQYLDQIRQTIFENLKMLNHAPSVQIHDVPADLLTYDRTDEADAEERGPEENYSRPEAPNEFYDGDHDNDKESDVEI
# The campaign covered roughly 320,000 compounds. About 480 (0.15%) were called active. The inconclusive results got no clear call from the source; some entries with a clear call stand among them for comparison. Rule as the data show it: active = inhibition above about 26% (passing the limit was not always enough); inconclusive = no clear call, values can overlap the other calls.
# Biological target: Histone deacetylase 3 (Homo sapiens) (UniProt O15379)
# Assay: HDAC3 deacetylase inhibitors, primary screen, biochemical, fluorescence, cell-free homogeneous (AID 2718)
# Details: recombinant HDAC3, fluorogenic peptide/trypsin coupled, at 8.3 µM, active compounds read high
row,Structure (SMILES),inhibition
1,O=S(=O)(c1ccc(F)cc1)N1CCC(n2cnc3ccccc32)CC1,inactive: 1.15%
2,Cc1cccc(C)c1-n1ncc(C(=O)NC2CCCC2)c1C1CCNCC1,inconclusive: 19.3%
3,COc1ccc2nc(N(CCN(C)C)C(=O)/C=C/c3cccs3)sc2c1,inconclusive: 16.2%
4,Cc1ccc(C)c(-n2sc3ccc(F)cc3c2=O)c1,inconclusive: 36.3%
5,COc1ccc(S(=O)(=O)NCCc2ccccc2)cc1OC,inconclusive: 15.3%
6,Cc1nc(-c2ccc(-n3nncc3-c3ccco3)cc2)cs1,inconclusive: 19.7%
7,NC(=O)COC(=O)c1ccc(S(=O)(=O)N2CCCCCC2)cc1,inactive: 5.46%
8,CCN(CC)CCN(CC(=O)N(C1CCCCC1)C1CCCCC1)C(=O)c1cccnc1,inconclusive: 18.1%
9,Cn1c(C(=O)OCC(=O)NCc2ccco2)cc2sccc21,inconclusive: 21.2%
10,CCCc1ccc(Oc2c(-c3ccc(O)c(C)c3O)n[nH]c2C)cc1,inconclusive: 20.7%
11,CCCCN(C/C=C/c1ccccc1OC)Cc1ccccc1,inactive: 1.46%
12,Nc1c(C(=O)CSc2nccn2-c2cccc(F)c2)c(=O)[nH]c(=O)n1C1CC1,inactive: -9.09%
13,CC(=O)Nc1c2c(nn1-c1cccc(Cl)c1)CS(=O)(=O)C2,inconclusive: 15.6%
14,O=C(CN1C(=O)c2cccc3cccc(c23)C1=O)N1CCCCC1,inconclusive: 15.5%
15,COC(=O)c1ccc(OC(=O)c2cccs2)cc1,active: 63%
16,O=C(Nc1cccc(C(F)(F)F)c1)c1cccnc1N1CCN(CCO)CC1,inconclusive: 20.9%
17,CS(=O)(=O)N1CCN(c2ccccc2NC(=O)c2ccc3ccccc3c2)CC1,inconclusive: 27.8%
18,C[C@@H]1CN([C@H](C)CO)C(=O)c2cccc(NC(=O)Nc3ccc(C(F)(F)F)cc3)c2O[C@H]1CN(C)S(=O)(=O)c1cccs1,inconclusive: 30.9%
19,COc1ccc(C2C(C(=O)/C=C/c3ccco3)=C(O)C(=O)N2CCN2CCOCC2)cc1 (stereo not given),inconclusive: 12.3%
20,O=C(OCC(=O)N1CCN(C(=O)c2ccco2)CC1)c1ccc(S(=O)(=O)N2CCCCC2)cc1,inconclusive: 17.3%
21,Cc1cc(C(=O)OCC(=O)NCc2ccco2)c(C)n1-c1ccc(F)cc1,inactive: -2.61%
22,O=C(NCCN1CCOCC1)c1ccc2c(c1)N(Cc1c(F)cccc1Cl)C(=O)c1ccccc1S2,inconclusive: 25.4%

# Quoted at random: 3 compounds from above.
row,Structure (SMILES),inhibition
21,Cc1cc(C(=O)OCC(=O)NCc2ccco2)c(C)n1-c1ccc(F)cc1,inactive: -2.61%
7,NC(=O)COC(=O)c1ccc(S(=O)(=O)N2CCCCCC2)cc1,inactive: 5.46%
3,COc1ccc2nc(N(CCN(C)C)C(=O)/C=C/c3cccs3)sc2c1,inconclusive: 16.2%

# (further entries)

row,Structure (SMILES),inhibition
1,COc1ccc(N2CSC3=C(C#N)C(c4ccc(OC)c(OC)c4)CC(=O)N3C2)c(OC)c1 (stereo not given),active: 40%
2,CCOc1ccc(NC(=O)c2ccc3c(=O)n4c(nc3c2)CCCCC4)cc1,inactive: -3.81%
3,Cc1cccn2c(=O)nc(SCC(=O)N3CCN(c4ccccc4)CC3)nc12,inactive: 0.341%
4,O=C(Cn1c(=O)c2c(ncn2Cc2ccccc2)n(Cc2ccccc2)c1=O)N1CCc2ccccc21,inconclusive: 13.2%
5,N/C(Cc1cccc2ccccc12)=N\OC(=O)c1ccccc1F,inactive: -2.53%
6,NCC12CC3CC(C1)CC(c1ccc(Br)cc1)(C3)C2,inconclusive: 19.2%
7,N#C/C(N)=C(/C#N)N=Cc1cccc(Cl)c1,inconclusive: 25.2%
8,O=[N+]([O-])c1ccccc1/C=N/Nc1nc(N2CCCC2)nc(N2CCCC2)n1,inactive: -4.14%
9,O=C(NCCCN1CCOCC1)C(Sc1ccccc1)c1ccccc1 (stereo not given),inconclusive: 33.3%
10,O=C(Cc1cccc2ccccc12)NCCC1=CCCCC1,inconclusive: 17.9%
11,CC1CCCN(CCCNC(=O)c2ccc(CS(=O)(=O)Cc3cccc(Cl)c3)o2)C1 (stereo not given),inconclusive: 15.8%
12,CCOc1ccc(S(=O)(=O)N2CCCC(C(=O)NCc3ccncc3)C2)cc1 (stereo not given),inactive: 6.26%
13,O=C(Nc1ccc(Br)c(C(F)(F)F)c1)c1ccc(C(F)(F)F)cc1,inconclusive: 19%
14,COC(=O)c1[nH]c2cc(OC)ccc2c1NC(=O)CCN1CCCCC1,inconclusive: 11%
15,C[C@H](CO)N1C[C@H](C)[C@@H](CN(C)S(=O)(=O)c2ccc(F)cc2)Oc2ccc(NC(=O)Nc3ccc(C(F)(F)F)cc3)cc2C1=O,inconclusive: 27.2%
16,O=C(Cc1ccccc1)N/N=C/c1ccc(-c2ccc([N+](=O)[O-])cc2)o1,inactive: -1.2%
17,N#CC1CC(c2ccc([N+](=O)[O-])cc2)=NN1c1ccc([N+](=O)[O-])cc1 (stereo not given),inconclusive: 18.6%
18,CC1C(=O)N2CCCc3cc(NC(=O)C(=O)NCCc4ccccc4)cc1c32 (stereo not given),inactive: -0.568%
19,Cc1ccc(NC(=O)CCC(=O)NNC(=O)NC2CCCCC2)c(C)c1,inconclusive: 12.6%
20,CSc1nc(-c2ccco2)nn1C(=O)c1ccccc1,active: 97.1%
21,CCc1ccc(-c2nc(CS(=O)CC(=O)O)c(C)o2)cc1 (stereo not given),inactive: 4.22%
22,CC1(C(=O)OCC(=O)Nc2ccc(S(=O)(=O)N3CCOCC3)cc2)CC1(Cl)Cl (stereo not given),inconclusive: 13.3%

row,Structure (SMILES),inhibition
1,ClCc1nc2ccccc2c2ccccc12,inactive: 4.79%
2,CC(C)c1[nH]nc2c1C(c1ccc(OC(=O)c3ccco3)cc1)C(C#N)=C(N)O2 (stereo not given),inconclusive: 19.5%
3,CC(C)OC(=O)C1=C(N)N2C(=O)CSC2=C(C(=O)OC(C)C)C1,inconclusive: 24.1%
4,Cc1[nH]nc(N=CC2=C(O)CC(c3ccco3)CC2=O)c1-c1ccc(Cl)cc1 (stereo not given),inconclusive: 23.8%
5,CCCS(=O)(=O)N1CCN=C1SCc1cccnc1,inactive: -4.62%
6,CCOC(=O)/C(C#N)=C\c1ccc(CC)s1,inactive: 6.84%
7,CCOc1cccc2cc(-c3csc(NC(=O)CCC(=O)N4CCC(C)CC4)n3)c(=O)oc12,inactive: -6.32%
8,CCN(CC)S(=O)(=O)c1ccc(/C=C/C(=O)OCC(=O)NC(=O)C2COc3ccccc3O2)cc1 (stereo not given),inactive: 2.87%
9,COC(=O)[C@H](CC(C)C)NS(=O)(=O)N(Cc1ccccc1)[C@@H](CC(C)C)C(=O)OC,active: 31.3%
10,O=c1oc(-c2ccccc2Br)nc2ccccc12,active: 44.5%
11,COC(=O)C(=Cc1ccc(-c2ccsc2C(=O)OC)o1)C(=O)OC,inactive: 4.66%
12,O=C(c1ccc(CSc2nc3ccncc3[nH]2)cc1)N1CCN(c2cccc(Cl)c2)CC1,inactive: 8.64%
13,O=C(NC(=S)NNC(=O)c1cc2ccccc2cc1O)c1ccco1,inconclusive: 15.9%
14,O=C(Cn1cc(C(=O)c2ccco2)c2ccccc21)NC1CC1,inconclusive: 22.6%
15,O=C(O)CCn1c(C2CCCCC2)nc2ccccc21,inconclusive: 14.4%
16,COC(=O)c1sccc1S(=O)(=O)Nc1ccc(S(N)(=O)=O)cc1,inconclusive: 12.4%
17,COc1ccc(OC)c(-c2cc(C(=O)NCc3cccs3)no2)c1,inconclusive: 14.6%
18,Cc1ccc(NC2CCCN(C(=O)c3ccccc3N3CCOCC3)C2)cc1C (stereo not given),inconclusive: 18.8%
19,COc1cccc(NC(=O)c2ccc(-c3ccc([N+](=O)[O-])cc3)o2)c1,inconclusive: 17.7%
20,O=C1[C@H]2[C@@H](c3ccc(F)cc3)N3C(=O)N(c4ccc(Br)cc4)C(=O)[C@@]3(Cc3ccccc3)[C@H]2C(=O)N1C1CCCCC1,inconclusive: 8.36%
21,COC(=O)Nc1sc2c(c1C(=O)N1CCOCC1)CCC(C)C2 (stereo not given),inconclusive: 19.1%
22,CCOC(=O)C1CCN(C(=O)CCc2nnc3ccc(N4CCC(C)CC4)nn23)CC1,inconclusive: 17.4%

row,Structure (SMILES),inhibition
1,O=C(NCC(c1ccco1)N1CCOCC1)c1ccc(Cl)cc1 (stereo not given),inconclusive: 20.6%
2,CC(C)C[C@H](NC(=O)c1nc[nH]c1C(=O)NC1CCN(C(=O)OC(C)(C)C)CC1)C(=O)OCc1ccccc1,active: 43.9%
3,CC(C)C[C@H](NC(=O)c1nc[nH]c1C(=O)NCc1ccc(CNC(=O)OC(C)(C)C)cc1)C(=O)OCc1ccccc1,inconclusive: 20%
4,CC(C)(C)OC(=O)C[C@H]1C/C=C\C[C@@H](CC(=O)N[C@@H](CO)Cc2ccccc2)C(=O)NC[C@@H](c2ccccc2)OC1=O,inactive: -30.4%
5,O=C(O/N=C(/c1ccccc1)c1ccncc1)c1ccc(F)cc1,active: 30.9%
6,CC(C)c1ccc(NC(=S)NC2CCN(Cc3ccccc3)CC2)cc1,inconclusive: 19.3%
7,CCN(CC)S(=O)(=O)c1cc(C(=O)OCC(=O)Nc2cccc(S(=O)(=O)N(C)C)c2)ccc1F,inconclusive: 33.4%
8,Cc1cc(Cl)ccc1N(CC(=O)NCc1ccc2c(c1)OCO2)S(C)(=O)=O,inconclusive: 18%
9,O=C(COc1ccccc1)N1CCN(S(=O)(=O)c2ccc(Cl)cc2)CC1,inconclusive: 26.8%
10,CCOc1c(OC)cccc1C(=O)NCC1(c2ccccc2)CCCC1,inconclusive: 15.8%
11,c1ccc(-c2ccc(C3CCCN3)cc2)cc1 (stereo not given),inconclusive: 14.8%
12,COc1ccccc1NC(=O)CSc1nnc(Cc2ccccc2)o1,inconclusive: 16.3%
13,CCN(C(=O)c1cn(C)c(=O)c2cc(OC)c(OC)cc12)c1cc(OC)ccc1OC,inconclusive: 25.7%
14,COc1cc([N+](=O)[O-])ccc1NC(=O)Cc1ccc(C)cc1,inconclusive: 8.17%
15,O=C(c1ccc(Cl)cc1)c1ccccc1C(=O)N1CCOCC1,inconclusive: 11.3%
16,O=C(CSC1=NCCN1)C1COc2ccccc2O1 (stereo not given),inconclusive: 34.9%
17,CN(C)c1ccc(/C=C2\SC(=S)N(Nc3ncc(C(F)(F)F)cc3Cl)C2=O)cc1,inactive: -2.7%
18,CC1(C)Cc2c(sc3ncnc(NNC(=S)NCc4ccccc4)c23)CO1,inactive: 3.29%
19,CCN1CCCC1CNCC(O)COc1ccc(C(C)(C)C)cc1C (stereo not given),inconclusive: 19.4%
